Assay: general procedure: Boc solid-phase peptide synthesis; Boc-Gly-O-Resin from chloromethylpolystyrene-1%-divinylbenzene resin (1 mmol Cl/g resin)
Conditions: whole synthesis, scale 1.0 mmol

With Ac-QDPYVKEAG-OH the crude mass (HF salt) was 0.725 g and the isolated mass (acetic acid salt) was 260 mg.
